Results deposited as PubChem BioAssay AID686943 (Drosophila RNAi Screening Center, 2013).
Screen: 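Knockdowns that increase or decrease active ERK after insulin receptor stimulation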 (primary screen). Cell system: Drosophila S2R+ haemocyte-like cells expressing YFP-tagged ERK (Rolled). Reagent: long dsRNA against Drosophila genes. Treatment: insulin stimulation versus unstimulated cells; dose and duration not given. Measured: 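Per-plate z-scores of phospho-ERK immunostaining normalised to YFP-tagged ERK, measured with and without insulin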. Reading the numbers: replicate 1, z-score of dpERK with insulin and replicate 2, z-score of dpERK with insulin: higher = more active ERK per ERK-YFP after insulin; replicate 1, z-score of dpERK under basal conditions: higher = more basal active ERK per ERK-YFP; replicate 1, z-score of ERK-YFP with insulin: higher = more YFP-tagged ERK signal.
The screen tested about 23,000 reagents; below is an unselected part of those that have a named target and a result. 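Extra replicates exist only for a retested subset of genes; insulin dose and duration not given; both raised and lowered dpERK matter.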 Reagents against one gene are numbered here. The record does not give: the amount of reagent, the time to read-out.

| replicate 1, z-score of dpERK with insulin | replicate 2, z-score of dpERK with insulin | replicate 1, z-score of dpERK under basal conditions | replicate 1, z-score of ERK-YFP with insulin | gene | reagent no. |
| --- | --- | --- | --- | --- | --- |
| 0.17 | -0.36 | 0.14 | -1.01 | bab2 | 1 |
| -2.08 | -3.44 | 0.06 | 2.91 | bab2 | 2 |
| 0.58 | 0.54 | -0.25 | 0.71 | CG31437 | 1 |
| 1.03 | -0.15 | 0.08 | 0.19 | CG17600 | 1 |
| -0.09 | 0.01 | -0.15 | -0.57 | CG17600 | 2 |
| -0.38 | 0.23 | 0.76 | -0.26 | CG17600 | 3 |
| 0.52 | -0.1 | 0.51 | -0.7 | Nubp1 | 1 |
| 1.06 | 0.25 | 0.43 | -0.19 | CG15705 | 1 |
| 0.62 | 0.43 | -0.3 | 0.1 | ldd | 1 |
| 0.15 | 0.25 | -0.95 | -0.13 | ldd | 2 |
| -0.34 | 0.46 | -0.75 | -0.02 | CG13667 | 1 |
| 1.43 | 0.21 | 0.48 | 0.82 | CG5116 | 1 |
| -1.65 | -2.01 | -2.03 | -1.24 | Hr3 | 1 |
| 0.59 | 0.2 | 0.14 | 0.57 | Hr3 | 2 |
| -0.5 | 0.75 | -0.38 | 0.55 | CG11052 | 1 |
| 0.1 | -0.21 | -0.46 | 0.38 | dpr4 | 1 |
| 1.2 | 1.05 | -0.01 | 0.22 | dpr4 | 2 |
| 0.02 | 0.39 | 1.33 | -0.23 | tzn | 1 |
| -1.66 | -3.15 | -0.75 | -1.23 | CG13894 | 1 |
| 0.26 | 0.24 | 0.45 | -0.32 | Pex7 | 1 |
| 0.18 | -0.2 | -1.96 | -1.26 | Cenp-C | 1 |
| -0.39 | -0.43 | 0.58 | -0.18 | side-VI | 1 |
| 1.15 | 0.58 | 1.36 | 0.02 | side-VI | 2 |
| -0.23 | 0.11 | 0.24 | -0.64 | side-VI | 3 |
| -0.85 | -0.16 | -0.23 | 0.57 | side-VI | 4 |
| 0.28 | -0.02 | 0.61 | -0.35 | Synj | 1 |
| 1 | 0.17 | 1.21 | 0.43 | CG9289 | 1 |
| 1.02 | -0.11 | 0.12 | -0.42 | CG32700 | 1 |
| 0.58 | 0.27 | 0.04 | -0.06 | CG32700 | 2 |
| 0.6 | 0.04 | 0.87 | 0.3 | gom | 1 |
| 0.07 | -0.91 | 0.51 | 0.26 | wa-cup | 1 |
| 0.07 | 0.33 | -0.42 | -0.07 | CG42254 (retired record) | 1 |
| -0.83 | -0.79 | 1.18 | 0.05 | CG3386 | 1 |
| 1.65 | 0.39 | 0.19 | -0.45 | GMF | 1 |
| -0.19 | -0.11 | -0.31 | 0.36 | Abcd1 | 1 |
| 1.25 | 0.52 | 1.01 | -0.31 | EMC7 | 1 |
| 0.09 | 0.04 | 0.3 | -0.18 | CG6094 | 1 |
| -0.11 | 0.62 | 0.8 | 0.19 | CG6094 | 2 |
| 0.18 | 0.5 | -0.17 | 0.01 | CG14015 | 1 |
| 1.12 | 0.54 | -0.38 | 0.24 | sas | 1 |
| 0 | -1.14 | 0.54 | 0.02 | klar | 1 |
| -0.27 | -0.28 | 0.32 | 0.6 | klar | 2 |
| 0.43 | -0.02 | 0.76 | -0.07 | DIP-theta | 1 |
| 0.44 | 0.62 | -1.81 | -0.59 | DIP-theta | 2 |
| -0.99 | 0.26 | -0.55 | 2.06 | DIP-theta | 3 |
| -0.03 | 0.11 | 0.92 | 0.02 | CG32055 | 1 |
| -0.28 | 0.68 | 0.8 | 0.32 | DopEcR | 1 |
| 0.87 | 0.47 | 0.09 | -1.38 | CG32719 | 1 |
| -0.93 | 0.74 | -0.65 | 1.16 | Osi11 | 1 |
| 0.37 | 0.06 | 1.29 | 0.09 | CG9876 | 1 |
| 0.28 | 0.03 | -1.22 | 0.21 | AstC-R1 | 1 |
| -1.64 | -4.17 | -1.55 | -1.55 | Prosalpha2 | 1 |
| -0.17 | 0.63 | -0.69 | -0.39 | blw | 1 |
| 0.34 | -0.28 | -0.46 | -0.2 | CG17601 | 1 |
| -0.8 | -0.05 | 1.35 | 0.35 | CG15564 | 1 |
| 0.32 | 0 | 0.48 | -0.46 | CG14245 | 1 |
| -0.37 | -0.01 | 0.44 | 0.55 | GlyRS | 1 |

7 consecutive entries from above:
| replicate 1, z-score of dpERK with insulin | replicate 2, z-score of dpERK with insulin | replicate 1, z-score of dpERK under basal conditions | replicate 1, z-score of ERK-YFP with insulin | gene | reagent no. |
| --- | --- | --- | --- | --- | --- |
| -0.03 | 0.11 | 0.92 | 0.02 | CG32055 | 1 |
| -0.28 | 0.68 | 0.8 | 0.32 | DopEcR | 1 |
| 0.87 | 0.47 | 0.09 | -1.38 | CG32719 | 1 |
| -0.93 | 0.74 | -0.65 | 1.16 | Osi11 | 1 |
| 0.37 | 0.06 | 1.29 | 0.09 | CG9876 | 1 |
| 0.28 | 0.03 | -1.22 | 0.21 | AstC-R1 | 1 |
| -1.64 | -4.17 | -1.55 | -1.55 | Prosalpha2 | 1 |
